From a melanoma drug combination screen (doi:10.1371/journal.pone.0140310); values rounded.

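Human melanoma cells were exposed to a pair of drugs for 72 h in 1,536-well plates and read by automated microscopy after fixing and staining. Each value is the count of nuclei relative to DMSO-treated wells, in %, so that 100 equals the control. Concentrations were fixed for each drug; these are the lower of two levels, a fifth of the higher. These are primary screening values without error estimates.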
An unselected part of the screen is shown.

All values are for the listed drug together with vatalanib (2 µM): Clc1ccc(Nc2nnc(Cc3ccncc3)c3ccccc23)cc1

For Cn1cncc1[C@@](N)(c1ccc(Cl)cc1)c1ccc2c(c1)c(-c1cccc(Cl)c1)cc(=O)n2C at 0.01 µM the values were C32: 87.4; A2058: 83.5; A375: 64.5; A101D: 80.5. With NC(=O)Nc1cc(-c2cccc(F)c2)sc1C(=O)N[C@H]1CCCNC1 at 0.02 µM the screen read C32: 99.0; A2058: 99.3; A375: 68.3; A101D: 75.3. For Cc1cc(N2CCOCC2)cc2[nH]c(-c3c(NC[C@@H](O)c4cccc(Cl)c4)cc[nH]c3=O)nc12 at 0.2 µM the values were C32: 88.3; A2058: 99.7; A375: 75.6; A101D: 103. Results for CN(C)S(=O)(=O)c1ccc2c(c1)/C(=C/c1cc3c([nH]1)CCCC3)C(=O)N2 at 0.4 µM are C32: 88.3; A2058: 91.3; A375: 96.7; A101D: 80.1. CC1(C)NC(=O)N(c2ccc([N+](=O)[O-])c(C(F)(F)F)c2)C1=O at 1 µM gave C32: 88.5; A2058: 101; A375: 82.8; A101D: 94.0.

Results for COc1cc(Nc2ncc(F)c(Nc3ccc4c(n3)NC(=O)C(C)(C)O4)n2)cc(OC)c1OC at 0.4 µM are C32: 76.4; A2058: 91.4; A375: 79.5; A101D: 84.6. With O=C(O)c1ccc(-c2c[nH]c3ncc(-c4ccccc4)cc23)cc1C1CCCC1 at 0.16 µM the screen read C32: 82.5; A2058: 92.2; A375: 78.3; A101D: 84.4. For O=C(CCCCCCC(=O)Nc1ccccc1)NO at 0.08 µM the values were C32: 87.8; A2058: 93.2; A375: 91.2; A101D: 86.9. With N#CC[C@H](C1CCCC1)n1cc(-c2ncnc3[nH]ccc23)cn1 at 1 µM the screen read C32: 95.5; A2058: 89.0; A375: 85.5; A101D: 101. COc1cc2c(Oc3ccc4[nH]c(C)cc4c3F)ncnc2cc1OCCCN1CCCC1 at 0.4 µM gave C32: 93.5; A2058: 86.4; A375: 89.6; A101D: 87.8.

With OCCn1cc(-c2cnc3nnn(Cc4ccc5ncccc5c4)c3n2)cn1 at 1 µM the screen read C32: 90.9; A2058: 85.5; A375: 78.0; A101D: 103. For O=C(Nc1cccc(Cl)c1)Nc1ncc(CCNc2ncnc3ccsc23)s1 at 0.0008 µM the values were C32: 98.7; A2058: 98.3; A375: 84.3; A101D: 88.9. CC(C)(C)c1cnc(CSc2cnc(NC(=O)C3CCNCC3)s2)o1 at 0.01 µM gave C32: 81.2; A2058: 93.9; A375: 69.6; A101D: 65.3. Results for NCC(=O)Nc1ccc(-n2nc(C(F)(F)F)cc2-c2ccc3c(ccc4ccccc43)c2)cc1 at 1 µM are C32: 107; A2058: 85.3; A375: 15.6; A101D: 95.6. Results for Cc1ccc(NC(=O)c2cccc(N(C)C)c2)cc1NC(=O)c1ccc(O)cc1 at 2 µM are C32: 92.5; A2058: 96.3; A375: 78.3; A101D: 102.

With C[C@]12O[C@H](C[C@]1(O)CO)n1c3ccccc3c3c4c(c5c6ccccc6n2c5c31)CNC4=O at 0.004 µM the screen read C32: 110; A2058: 107; A375: 89.0; A101D: 95.3.

Some entries from above, unchanged:

Second drug,C32,A2058,A375,A101D
Cc1ccc(NC(=O)c2cccc(N(C)C)c2)cc1NC(=O)c1ccc(O)cc1 at 2 µM,92.5,96.3,78.3,102
NC(=O)Nc1cc(-c2cccc(F)c2)sc1C(=O)N[C@H]1CCCNC1 at 0.02 µM,99.0,99.3,68.3,75.3